Experimental data: PubChem BioAssay AID504784 (Drosophila RNAi Screening Center, 2011)
The deposit covers about 17,000 reagents; below is a random part of those that have a named target and a result. 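Each column is one replicate's B-score; the combined score over replicates was not deposited, so single values may mislead.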 A plus sign joins genes that one reagent is predicted to hit. Not all columns of the deposit are shown.

- Test: 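Genome-wide knock-down for genes giving too much or too little stored lipid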 (primary screen)
- Cell system: Drosophila Kc167 embryonic cells
- Knock-down reagent: long dsRNA against Drosophila genes, about 250 ng dsRNA per well
- Duration: 4 days
- Challenge: cells fed 400 µM oleic acid bound to BSA
- Measurement: 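Cells imaged and segmented; ratio of lipid droplet area to nuclear area, log-transformed, then normalised as a B-score over the screen; higher means more stored lipid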
- Reading the numbers: droplet/nuclear area B-score: higher = more stored lipid (overstorage)

CG2157 [DRSC19836]
- droplet/nuclear area B-score, replicate 1: -2.77

CG15876 [DRSC08484]
- droplet/nuclear area B-score, replicate 1: -2.42

GstE11 (Glutathione S transferase E11) [DRSC06926]
- droplet/nuclear area B-score, replicate 1: 0.733

CCT7 (Chaperonin containing TCP1 subunit 7) [DRSC16410]
- droplet/nuclear area B-score, replicate 1: 0.0411

Rh2 (Rhodopsin 2) [DRSC16821]
- droplet/nuclear area B-score, replicate 1: -5.11

HGTX [DRSC09319]
- droplet/nuclear area B-score, replicate 1: 1.1

HGTX [DRSC11181]
- droplet/nuclear area B-score, replicate 1: 1.1

Ir75a (Ionotropic receptor 75a) [DRSC10188]
- droplet/nuclear area B-score, replicate 1: 0.343

sli (slit) [DRSC07684]
- droplet/nuclear area B-score, replicate 1: -0.466

Slc25A46b [DRSC02888]
- droplet/nuclear area B-score, replicate 1: 0.112

CG32119 [DRSC09248]
- droplet/nuclear area B-score, replicate 1: 0.614

CG32119 [DRSC21462]
- droplet/nuclear area B-score, replicate 1: -1.11

wdp (windpipe) [DRSC04367]
- droplet/nuclear area B-score, replicate 1: -1.01

alt (aluminum tubes) [DRSC15315]
- droplet/nuclear area B-score, replicate 1: -0.152

CG15841 (retired record) + Acp33A [DRSC01859]
- droplet/nuclear area B-score, replicate 1: 0.242

Rtel1 (Regulator of telomere elongation helicase 1) [DRSC18343]
- droplet/nuclear area B-score, replicate 1: -1.21

Ccp84Ag [DRSC12592]
- droplet/nuclear area B-score, replicate 1: 0.968

Ccp84Ag [DRSC22085]
- droplet/nuclear area B-score, replicate 1: 2.01

Ak6 (Adenylate kinase 6) [DRSC07274]
- droplet/nuclear area B-score, replicate 1: -0.276

l(3)neo38 (lethal (3) neo38) [DRSC14946]
- droplet/nuclear area B-score, replicate 1: -1.67

l(3)neo38 (lethal (3) neo38) [DRSC16138]
- droplet/nuclear area B-score, replicate 1: 0.0142

l(3)neo38 (lethal (3) neo38) [DRSC23262]
- droplet/nuclear area B-score, replicate 1: -0.00618

jbug (jitterbug) [DRSC03952]
- droplet/nuclear area B-score, replicate 1: -2.77

jbug (jitterbug) [DRSC04114]
- droplet/nuclear area B-score, replicate 1: -1.78

jbug (jitterbug) [DRSC04167]
- droplet/nuclear area B-score, replicate 1: -0.366

jbug (jitterbug) [DRSC04388]
- droplet/nuclear area B-score, replicate 1: -0.0409

ND-B18 (NADH dehydrogenase (ubiquinone) B18 subunit) [DRSC19947]
- droplet/nuclear area B-score, replicate 1: 0.488
